# Data from the supplement of paper PMC8728848.
# The other results are listed elsewhere or left out.
# Legend:
# Experiment in all cases: glycan array binding signal (z-score within array); higher = stronger binding
# Conditions in all cases: glycan notation: IUPAC condensed, linker removed
# [1] = molecular target: Gal(b1-3)GlcNAc(b1-2)Man(a1-3)[GlcNAc(b1-4)][Gal(b1-3)GlcNAc(b1-2)Man(a1-6)]Man(b1-4)GlcNAc(b1-4)GlcNAc
# Procedure, shortened: (§1)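 Negative Z-scores can be read as non-binding. The Z-score is calculated within each array and then averaged across arrays of one protein sequence at different concentrations or buffers and across linkers. Arrays, 3228 in all, were curated from the Consortium for Functional Glycomics database and kept only where the protein sequence was available.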
# [2] = molecular target: Gal(b1-3)GlcNAc(b1-2)[Gal(b1-3)GlcNAc(b1-6)]Man(a1-6)[Gal(b1-3)GlcNAc(b1-2)Man(a1-3)]Man(b1-4)GlcNAc(b1-4)GlcNAc
# Procedure, shortened: as §1
# [3] = molecular target: Gal(b1-3)GlcNAc(b1-3)Gal(b1-3)GlcNAc
# Procedure, shortened: as §1
# [4] = molecular target: Gal(b1-3)GlcNAc(b1-3)Gal(b1-4)Glc
# Procedure, shortened: as §1
# [5] = molecular target: Gal(b1-3)GlcNAc(b1-3)Gal(b1-4)GlcNAc
# Procedure, shortened: as §1
# [6] = molecular target: Gal(b1-3)GlcNAc(b1-3)Gal(b1-4)GlcNAc(b1-2)Man(a1-3)[Gal(b1-3)GlcNAc(b1-3)Gal(b1-4)GlcNAc(b1-2)Man(a1-6)]Man(b1-4)GlcNAc(b1-4)GlcNAc
# Procedure, shortened: as §1
# [7] = molecular target: Gal(b1-3)GlcNAc(b1-3)Gal(b1-4)GlcNAc(b1-2)[Gal(b1-3)GlcNAc(b1-3)Gal(b1-4)GlcNAc(b1-6)]Man(a1-6)[Gal(b1-3)GlcNAc(b1-3)Gal(b1-4)GlcNAc(b1-2)Man(a1-3)]Man(b1-4)GlcNAc(b1-4)[Fuc(a1-6)]GlcNAc
# Procedure, shortened: as §1
# [8] = molecular target: Gal(b1-3)GlcNAc(b1-3)Gal(b1-4)GlcNAc(b1-3)Gal(b1-4)GlcNAc(b1-2)[Gal(b1-3)GlcNAc(b1-3)Gal(b1-4)GlcNAc(b1-3)Gal(b1-4)GlcNAc(b1-6)]Man(a1-6)[Gal(b1-3)GlcNAc(b1-3)Gal(b1-4)GlcNAc(b1-3)Gal(b1-4)GlcNAc(b1-2)Man(a1-3)]Man(b1-4)GlcNAc(b1-4)[Fuc(a1-6)]GlcNAc
# Procedure, shortened: as §1
# [9] = molecular target: Gal(b1-3)GlcNAc(b1-3)Gal(b1-4)GlcNAc(b1-6)[Gal(b1-3)GlcNAc(b1-3)]Gal(b1-4)Glc
# Procedure, shortened: as §1
# [10] = molecular target: Gal(b1-3)GlcNAc(b1-3)Gal(b1-4)[Fuc(a1-3)]GlcNAc
# Procedure, shortened: as §1
# [11] = molecular target: Gal(b1-3)GlcNAc(b1-3)Gal(b1-4)[Fuc(a1-3)]GlcNAc(b1-6)[Gal(b1-3)GlcNAc(b1-3)]Gal(b1-4)Glc
# Procedure, shortened: as §1
# [12] = molecular target: Gal(b1-3)GlcNAc(b1-3)GalNAc
# Procedure, shortened: as §1
# [13] = molecular target: Gal(b1-3)GlcNAc(b1-6)Gal(b1-4)GlcNAc
# Procedure, shortened: as §1
# [14] = molecular target: Gal(b1-3)GlcNAc(b1-6)GalNAc
# Procedure, shortened: as §1
# [15] = molecular target: Gal(b1-3)GlcNAc(b1-6)[Gal(b1-3)]GalNAc
# Procedure, shortened: as §1
# [16] = molecular target: Gal(b1-3)GlcNAc6S
# Procedure, shortened: as §1
# [17] = molecular target: Gal(b1-3)[Fuc(a1-4)]GlcNAc
# Procedure, shortened: as §1
# [18] = molecular target: Gal(b1-3)[Fuc(a1-4)]GlcNAc(b1-2)Man
# Procedure, shortened: as §1
# [19] = molecular target: Gal(b1-3)[Fuc(a1-4)]GlcNAc(b1-2)Man(a1-3)[Gal(b1-3)[Fuc(a1-4)]GlcNAc(b1-2)Man(a1-6)]Man(b1-4)GlcNAc(b1-4)[Fuc(a1-6)]GlcNAc
# Procedure, shortened: as §1
# [20] = molecular target: Gal(b1-3)[Fuc(a1-4)]GlcNAc(b1-3)Gal(b1-3)[Fuc(a1-4)]GlcNAc
# Procedure, shortened: as §1
# [21] = molecular target: Gal(b1-3)[Fuc(a1-4)]GlcNAc(b1-3)Gal(b1-4)[Fuc(a1-3)]GlcNAc
# Procedure, shortened: as §1
# [22] = molecular target: Gal(b1-3)[Fuc(a1-4)]GlcNAc(b1-6)GalNAc
# Procedure, shortened: as §1
# [23] = molecular target: Gal(b1-3)[GlcNAc(b1-6)]GalNAc
# Procedure, shortened: as §1
# [24] = molecular target: Gal(b1-3)[Neu5Ac(a2-6)]GalNAc
# Procedure, shortened: as §1
# [25] = molecular target: Gal(b1-3)[Neu5Ac(a2-6)]GlcNAc(b1-4)Gal(b1-4)Glc
# Procedure, shortened: as §1
# [26] = molecular target: Gal(b1-3)[Neu5Ac(b2-6)]GalNAc
# Procedure, shortened: as §1
# [27] = molecular target: Gal(b1-4)Gal
# Procedure, shortened: as §1
# [28] = molecular target: Gal(b1-4)GalNAc(a1-3)[Fuc(a1-2)]Gal(b1-4)GlcNAc
# Procedure, shortened: as §1
# [29] = molecular target: Gal(b1-4)GalNAc(b1-3)[Fuc(a1-2)]Gal(b1-4)GlcNAc
# Procedure, shortened: as §1
# [30] = molecular target: Gal(b1-4)Glc
# Procedure, shortened: as §1
binder,measurement,setting,value
"GroEL (Clostridium difficile), Q18CT5 (protein) MAKEIKFSEETRRALEAGVNKLADTVKVTLGPKGRNVILDKKFGSPLITNDGVTIAKEIELEDRFENMGAQLVKEVATKTNDVAGDGTTTATVLAQAIIREGLKNVTAGANPILLRKGIQKAVTVAVEELKNQSRIVETQEAISQVASISAGDEEVGKLIAEAMEIVGKDGVITVEESQTMNTELDAVEGMQFDRGFVSAYMVTDVDKMEAVLNDPYILITDKKISNIQELLPVLEQIVQQGKKLLIIAEDVEGEALSTLVVNKLRGTFDVVAVKAPGFGDRRKEMLQDIAILTGAQVISEELGYDLKEADLSMLGRASSVKVTKESTTIVDGSGDKKAIEDRVTQIKHQVEQTTSDFDREKLMERLAKLAGGVAVVKVGAATEVELKERKLRIEDALNATRAAVEEGIVAGGGTAFVSVIPAIGTLIESLEGEVKLGAQIVKKALEEPLRQIAINAGLEGAVIVQNVVNSEAETGFDALNEKYVNMIEAGIVDPTKVSRSALQNAASIASTFLTTEAAVADLPEKEDAGMPGMGGGMPGMM",glycan array binding signal (z-score),[1],1.57
same,glycan array binding signal (z-score),[2],-1.3
same,glycan array binding signal (z-score),[3],-0.943
same,glycan array binding signal (z-score),[4],-0.417
same,glycan array binding signal (z-score),[5],-0.178
same,glycan array binding signal (z-score),[6],0.567
same,glycan array binding signal (z-score),[7],2.26
same,glycan array binding signal (z-score),[8],0.368
same,glycan array binding signal (z-score),[9],-0.643
same,glycan array binding signal (z-score),[10],1.03
same,glycan array binding signal (z-score),[11],-0.967
same,glycan array binding signal (z-score),[12],-0.375
same,glycan array binding signal (z-score),[13],-0.508
same,glycan array binding signal (z-score),[14],0.343
same,glycan array binding signal (z-score),[15],-0.809
same,glycan array binding signal (z-score),[16],0.344
same,glycan array binding signal (z-score),[17],-0.919
same,glycan array binding signal (z-score),[18],0.952
same,glycan array binding signal (z-score),[19],2.34
same,glycan array binding signal (z-score),[20],0.963
same,glycan array binding signal (z-score),[21],0.108
same,glycan array binding signal (z-score),[22],1.37
same,glycan array binding signal (z-score),[23],0.134
same,glycan array binding signal (z-score),[24],-0.592
same,glycan array binding signal (z-score),[25],-0.031
same,glycan array binding signal (z-score),[26],1.46
same,glycan array binding signal (z-score),[27],0.494
same,glycan array binding signal (z-score),[28],-0.039
same,glycan array binding signal (z-score),[29],0.291
same,glycan array binding signal (z-score),[30],0.51
